# Results from PubChem BioAssay AID1671190 (National Center for Advancing Translational Sciences (NCATS), 2021).
# The chains behind the UniProt entries cited, without tags or fusion partners. Where a name states a change or a piece, a line headed by the entry shows the natural chain unless it says otherwise.
# UniProt P18054: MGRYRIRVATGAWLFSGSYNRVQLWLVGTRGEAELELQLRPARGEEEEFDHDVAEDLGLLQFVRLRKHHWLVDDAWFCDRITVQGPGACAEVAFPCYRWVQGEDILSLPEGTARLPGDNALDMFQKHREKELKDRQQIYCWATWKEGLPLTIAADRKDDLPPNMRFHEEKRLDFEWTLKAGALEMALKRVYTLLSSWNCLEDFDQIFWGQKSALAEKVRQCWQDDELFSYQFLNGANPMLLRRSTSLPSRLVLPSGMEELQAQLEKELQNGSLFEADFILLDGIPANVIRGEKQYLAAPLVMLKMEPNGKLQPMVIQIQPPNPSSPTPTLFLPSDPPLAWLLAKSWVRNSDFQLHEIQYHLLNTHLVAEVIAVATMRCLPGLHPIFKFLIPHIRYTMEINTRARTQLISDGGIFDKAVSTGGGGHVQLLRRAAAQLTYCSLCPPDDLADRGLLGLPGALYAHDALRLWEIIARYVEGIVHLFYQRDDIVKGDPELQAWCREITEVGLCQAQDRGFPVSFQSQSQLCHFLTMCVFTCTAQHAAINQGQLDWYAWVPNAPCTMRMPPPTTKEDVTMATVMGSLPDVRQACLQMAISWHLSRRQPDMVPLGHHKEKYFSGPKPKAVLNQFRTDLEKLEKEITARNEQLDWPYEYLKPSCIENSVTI
# Among all 580,000 compounds or so, about 6,100 (1.1%) were called active. This list was built around the results that the source calls inconclusive (neither active nor inactive); the mix of calls is not that of the screen. Calls come from the whole dose curve; as a rule, active = well fitted inhibition curve with a large enough effect; inconclusive = small, poorly fitted or top-dose-only effect, or another doubt; inactive = no such curve, though single readings can be large or run the other way. A potency beside an inconclusive call is a rough fit, not a confirmed value.
# Biological target: Polyunsaturated fatty acid lipoxygenase ALOX12 (Homo sapiens) (UniProt P18054)
# Experiment: Primary qHTS assay for inhibitors of human arachidonate 12S-lipoxygenase (ALOX12): Round 2
# Conditions: purified 12hLO, xylenol orange hydroperoxide absorbance; activity change, negative = inhibition: at 108 µM (top of the series) unless noted
# In short: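 Purified human 12hLO (150 nM final) in 25 mM Hepes, 0.01% Triton X-100, pH 7.0 was preincubated 15 min at room temperature with compound. Then 40 uM arachidonic acid was added, 30 min. Hydroperoxide was read by Fe-XO absorbance ratio 573/405 nm.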
# % is set by controls: 0 for no effect and ±100 for the full control effect; potency is the fitted concentration of half-maximal effect.
Structure (SMILES),Potency,"activity change, negative = inhibition"
COc1ccc(-n2c(=O)c(C)nc3cncnc32)cc1,"inconclusive: 79.4 µM [inhibitor, partial curve, poor fit]",
Oc1cccnc1SCc1ccccc1,active: 6.31 µM,
CC(C)Oc1ccc(CNCC2(O)CCOC(C)(C)C2)cc1 (stereo not given),"inconclusive: 0.631 µM [inhibitor, full curve, poor fit]",
O=C(COc1ccc(S(=O)(=O)N2CCc3ccccc32)cc1Cl)NCc1ccccn1,"inconclusive: 28.2 µM [inhibitor, full curve, poor fit]",
Cn1ccsc1=NC(=O)c1ccc([N+](=O)[O-])o1,,inactive: -23.8%
COCC1CCCN(Cc2nc(-c3ccc4c(c3)OCO4)no2)C1 (stereo not given),"inconclusive: 44.7 µM [inhibitor, partial curve, poor fit]",
O=C(O)c1cnn2c1C(=O)N(Cc1cccs1)CC2,,inactive: -15.4%
O=C(NCCc1ccc(Cl)cc1)C1CCN(Cc2cc3ccccc3n2Cc2ccccc2)CC1,"inconclusive: 56.2 µM [inhibitor, partial curve, poor fit]",
O=C(/C=C/[C@H]1O[C@@H](n2cnc3c(NC(=O)c4ccccc4)ncnc32)[C@H](O)[C@@H]1O)NCCc1ccc(F)cc1,"inconclusive: 28.2 µM [inhibitor, partial curve, poor fit]",
Cc1[nH]c2ccccc2c1SCCNC(=O)c1cccs1,"inconclusive: 50.1 µM [inhibitor, partial curve, poor fit]",
Cc1nc(-c2cccc(Cl)c2)n(Cc2cc(=O)n3ccccc3n2)c(=O)c1CCO,"inconclusive: 7.94 µM [inhibitor, full curve]",
Cc1sc2ncnc(N3CCC(C(=O)NNC(=O)COc4cccc(C(F)(F)F)c4)CC3)c2c1C,,inactive: 13.7%
Cc1ccc(CNC(=O)CN2C(=O)CSc3ccc(S(=O)(=O)N4CCCCC4)cc32)cc1,,inactive: -8.01%
Cc1ccc(C)c(S(=O)(=O)Nc2ccc(O)c3ccccc23)c1,"inconclusive: 2.82 µM [inhibitor, full curve, poor fit]",
O=[N+]([O-])c1ccc(NS(=O)(=O)c2cccs2)cc1,,inactive: 6.8%
Cc1noc2c(-c3cccc(O)c3)cc(-c3cccs3)nc12,"inconclusive: 20 µM [inhibitor, full curve]",
Cc1cnc2c(S(=O)(=O)N3CCNC(=O)C3)cccc2c1,,inactive: 14.3%
O=C(CC(=O)c1ccccc1)c1ccccc1,,inactive: 3.09%
CCSc1nsc(SCC)c1C(N)=O,"inconclusive: 44.7 µM [inhibitor, partial curve]",
Cc1cccc(NC(=O)c2cc3c(s2)-c2ccccc2S(=O)(=O)C3)n1,"inconclusive: 112 µM [inhibitor, single point]",
Cc1cc(C)c(NC(=O)Cn2c(=O)oc3cc(S(=O)(=O)N4CCCCCC4)ccc32)c(C)c1,"inconclusive: 178 µM [inhibitor, partial curve, poor fit]",
COCCC(=O)N[C@H]1CC[C@]2(C)CCC([C@H](C)C(=O)N(C)Cc3ccccc3)[C@H](O)[C@H]2[C@@H]1C (stereo not given in full),,inactive: -1.56%
COCC(=O)N1CCC(Oc2ccc(C(=O)N3C[C@@H](C)O[C@@H](C)C3)cc2)CC1,,inactive: 0%

Structure (SMILES),Potency,"activity change, negative = inhibition"
COc1ccc(C(C)=O)cc1CS(=O)(=O)Cc1ccccc1F,"inconclusive: 0.794 µM [inhibitor, full curve, poor fit]",
CCC(CC)NC(=O)C(C)c1ccc2cc(OC)ccc2c1 (stereo not given),,inactive: -18%
COc1ccc(S(=O)(=O)Oc2ccc3cccc(N)c3c2)cc1,"inconclusive: 112 µM [inhibitor, single point]",
CC(C)CC(=O)N[C@H](C)c1onc(-c2ccc(F)cc2)c1C(=O)O,"inconclusive: 25.1 µM [inhibitor, full curve, poor fit]",
Clc1ccc2nc(-c3ccc(Cl)nc3)[nH]c2c1,"inconclusive: 56.2 µM [inhibitor, partial curve, poor fit]",
O=C(CN1CCCCCC1)NCCc1ccc(F)cc1,"inconclusive: 1.58 µM [inhibitor, full curve, poor fit]",
COc1ccc(CN2C(=O)c3ccccc3C2C(=O)NC2CCCC(C)C2C)c(OC)c1 (stereo not given),,inactive: -8.18%
O=S(=O)(c1ccccc1)N1CC[C@@H]2COCCN(Cc3cccnc3)[C@@H]2C1,"inconclusive: 8.91 µM [inhibitor, full curve]",
Cc1cc(-c2n[nH]c(=S)n2/N=C/c2cccs2)n[nH]1,"inconclusive: 50.1 µM [inhibitor, partial curve, poor fit]",
Cc1c(N(C)S(=O)(=O)c2cccc(C(=O)NCc3cccnc3)c2)c(=O)n(-c2ccccc2)n1C,"inconclusive: 79.4 µM [inhibitor, single point]",
CN(C)c1ccc(-c2nnn(CC(=O)Nc3ccccc3N3CCOCC3)n2)cc1,,inactive: 12.9%
CC(C)C(C)(C#N)NC(=O)CSc1nnc(-c2ccccc2)o1 (stereo not given),,inactive: 329%
O=C1N[C@@H](Cc2c[nH]c3ccccc23)C(=O)N[C@H]1Cc1c[nH]c2ccccc12,"inconclusive: 25.1 µM [inhibitor, partial curve, poor fit]",
Cc1ccn2cc(C(=O)N3CCN(c4cccc(Cl)c4)CC3)nc2c1,,inactive: 15.6%
O=[N+]([O-])c1ccc(NS(=O)(=O)c2ccc(I)s2)c([N+](=O)[O-])c1,active: 15.8 µM,
Cc1cc(C)c(C)c(N=Nc2nc3ccccc3n2C)c1C,"inconclusive: 50.1 µM [inhibitor, partial curve, poor fit]",
CCC(C)(NC(=O)CNC(=O)c1ccccc1)C(=O)NC1CCCC1 (stereo not given),,inactive: -2.23%
CCOC(=O)NC(C(Cl)(Cl)Cl)S(=O)(=O)c1ccccc1 (stereo not given),"inconclusive: 35.5 µM [inhibitor, partial curve, poor fit]",
Cc1ccc(/C=N/Nc2ccc3ccccc3n2)o1,,inactive: -25.1%
Cc1cccc(NC(=O)c2cccn3c(-c4ccc(F)cc4)nnc23)c1C,"inconclusive: 39.8 µM [inhibitor, partial curve, poor fit]",
CCCS(=O)(=O)NCC(=O)N1CCCCCCNC(=O)CC1c1ccccc1 (stereo not given),,inactive: 35%
O=C(NNC(=O)C1CCCC1)c1ccc(Br)cc1,,inactive: 23.6%

# Retrieved by compound from the list above, four records:
Structure (SMILES),Potency,"activity change, negative = inhibition"
O=C(CN1CCCCCC1)NCCc1ccc(F)cc1,"inconclusive: 1.58 µM [inhibitor, full curve, poor fit]",
O=C(NNC(=O)C1CCCC1)c1ccc(Br)cc1,,inactive: 23.6%
Clc1ccc2nc(-c3ccc(Cl)nc3)[nH]c2c1,"inconclusive: 56.2 µM [inhibitor, partial curve, poor fit]",
CC(C)CC(=O)N[C@H](C)c1onc(-c2ccc(F)cc2)c1C(=O)O,"inconclusive: 25.1 µM [inhibitor, full curve, poor fit]",
